1 compound from the supplement of paper PMC11659162 can be followed below.

The list shows a part of the results. Single values of this set are uncertain.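 The cells are a human neuroglioma line carrying a green fluorescent autophagy reporter.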

The assay relates to H4 GFP-LC3. The assay can be described thus: cell viability (scaled to control) (fraction of control); higher = more viable cells. The settings on record: 5 µM; 24 h.

Compound `Clc1ccc(C2CC3CCC2N3)cn1` (racemic) had a cell viability of 1.3.
